Results are given in words; binding and its absence hold for the method and conditions named. In cells and extracts the contact can be indirect. Binding calls can cover weak binding; strength is not graded here.
Target: T1, 6-phosphofructo-2-kinase/fructose-2,6-biphosphatase 3 (mouse (endogenous in C2C12 and in C57BL/6 tibialis anterior muscle)) (UniProt Q7TS91)
T1 sequence: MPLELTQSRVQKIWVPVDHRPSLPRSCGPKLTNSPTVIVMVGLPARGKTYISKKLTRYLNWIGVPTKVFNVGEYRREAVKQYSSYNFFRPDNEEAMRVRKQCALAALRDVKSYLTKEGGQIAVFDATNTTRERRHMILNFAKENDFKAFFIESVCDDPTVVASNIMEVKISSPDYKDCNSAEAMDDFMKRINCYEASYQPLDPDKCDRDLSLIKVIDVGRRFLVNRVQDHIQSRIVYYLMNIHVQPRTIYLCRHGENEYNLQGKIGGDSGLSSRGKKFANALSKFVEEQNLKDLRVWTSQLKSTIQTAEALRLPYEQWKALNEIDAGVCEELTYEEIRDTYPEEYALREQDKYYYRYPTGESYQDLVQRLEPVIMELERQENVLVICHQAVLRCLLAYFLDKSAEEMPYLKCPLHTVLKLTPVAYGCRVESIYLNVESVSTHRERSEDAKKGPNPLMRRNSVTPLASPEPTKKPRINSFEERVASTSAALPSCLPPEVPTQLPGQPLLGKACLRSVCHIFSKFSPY
Test: co-IP; total protein from mouse TA muscles 5 days after cardiotoxin injection in RIPA lysis buffer, precleared with anti-species-specific IgG beads, incubated with PFKFB3 and ADK antibodies for 3 h at 4 °C, then protein A/G agarose beads; Western blotting

Myosin
binding: binds

— PMC12733700
